According to the supplement of paper PMC9233669:
Variants at the background level are over-represented here.

How the values were obtained:
[1] = test system: biotinyl-Leu-oxazolone; test: self-aminoacylation, catalytic enhancement (BLO) (fold over background); higher = more active; k-Seq, kA / k0A0; sequences stand for … in GGGAAUGGAUCCACAUCUACGAAUUC…UUCACUGCAGACUUGACGAAGCUG
Procedure, shortened: (§1)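 Working in 50 μL HEPES/NaCl/KCl/MgCl2/CaCl2 buffer with 5% acetonitrile at pH 6.9–7.0, mutagenized RNA pools (0.43 μM; 21-nt variable region) were reacted with 2–1250 μM of each biotinyl-aminoacyl-oxazolone for 90 minutes at room temperature. Streptavidin capture followed, with quantification by triplicate qPCR and Illumina sequencing. Catalytic enhancement is reported as median kA over the uncatalyzed rate, the low-activity peak of a bimodal Gaussian fit to the data.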

[2] = test system: biotinyl-Ile-oxazolone; test: self-aminoacylation, catalytic enhancement (BIO) (fold over background); higher = more active; k-Seq, kA / k0A0; sequences stand for … in GGGAAUGGAUCCACAUCUACGAAUUC…UUCACUGCAGACUUGACGAAGCUG
Procedure, shortened: as §1

[3] = test system: biotinyl-Phe-oxazolone; test: self-aminoacylation, catalytic enhancement (BFO) (fold over background); higher = more active; k-Seq, kA / k0A0; sequences stand for … in GGGAAUGGAUCCACAUCUACGAAUUC…UUCACUGCAGACUUGACGAAGCUG
Procedure, shortened: as §1

[4] = test system: biotinyl-Trp-oxazolone; test: self-aminoacylation, catalytic enhancement (BWO) (fold over background); higher = more active; k-Seq, kA / k0A0; sequences stand for … in GGGAAUGGAUCCACAUCUACGAAUUC…UUCACUGCAGACUUGACGAAGCUG
Procedure, shortened: as §1

[5] = test system: biotinyl-Val-oxazolone; test: self-aminoacylation, catalytic enhancement (BVO) (fold over background); higher = more active; k-Seq, kA / k0A0; sequences stand for … in GGGAAUGGAUCCACAUCUACGAAUUC…UUCACUGCAGACUUGACGAAGCUG
Procedure, shortened: as §1

[6] = test system: biotinyl-Met-oxazolone; test: self-aminoacylation, catalytic enhancement (BMO) (fold over background); higher = more active; k-Seq, kA / k0A0; sequences stand for … in GGGAAUGGAUCCACAUCUACGAAUUC…UUCACUGCAGACUUGACGAAGCUG
Procedure, shortened: as §1

ACGUUUGCUAAUAUUCGCAAG [Fam3.1 aminoacylation ribozyme variant]
self-aminoacylation [1]: 1.38
self-aminoacylation [2]: 1.57
self-aminoacylation [3]: 1.17
self-aminoacylation [4]: 1.67
self-aminoacylation [5]: 1.47
self-aminoacylation [6]: 1.29

ACUCACCUAGGUCAUCAGGUG [Fam2.2 aminoacylation ribozyme variant]
self-aminoacylation [1]: 1.04
self-aminoacylation [2]: 1.3
self-aminoacylation [3]: 1.52
self-aminoacylation [4]: 1.82
self-aminoacylation [5]: 1.22
self-aminoacylation [6]: 1.1

ACUCACCUAGGUCAUCGGUUG [Fam2.2 aminoacylation ribozyme variant]
self-aminoacylation [1]: 1.19
self-aminoacylation [2]: 1.42
self-aminoacylation [3]: 1
self-aminoacylation [4]: 1.72
self-aminoacylation [5]: 1.3
self-aminoacylation [6]: 1.19

ACUCACCUGGGUCAUCGGGUG [Fam2.2 aminoacylation ribozyme variant]
self-aminoacylation [1]: 5.61
self-aminoacylation [2]: 4.86
self-aminoacylation [3]: 38.9
self-aminoacylation [4]: 8.05
self-aminoacylation [5]: 4.66
self-aminoacylation [6]: 4.83

ACUCACCUUGGUCAUCGGGUG [Fam2.2 aminoacylation ribozyme variant]
self-aminoacylation [1]: 7.85
self-aminoacylation [2]: 4.9
self-aminoacylation [3]: 37.8
self-aminoacylation [4]: 9.04
self-aminoacylation [5]: 5.78
self-aminoacylation [6]: 6.92

AGGGUUGCUAAUAGUCGCAAG [Fam3.1 aminoacylation ribozyme variant]
self-aminoacylation [1]: 1.81
self-aminoacylation [2]: 1.58
self-aminoacylation [3]: 4.28
self-aminoacylation [4]: 1.6
self-aminoacylation [5]: 1.7
self-aminoacylation [6]: 2.18

AGGUUUGCUAAUAGUCGCAAG [Fam3.1 aminoacylation ribozyme variant]
self-aminoacylation [1]: 1.41
self-aminoacylation [2]: 1.56
self-aminoacylation [3]: 22
self-aminoacylation [4]: 6.61
self-aminoacylation [5]: 1.38
self-aminoacylation [6]: 1.75

AGGUUUGCUCAUAGUCGCAAG [Fam3.1 aminoacylation ribozyme variant]
self-aminoacylation [1]: 1.95
self-aminoacylation [2]: 1.85
self-aminoacylation [3]: 2.95
self-aminoacylation [4]: 2.45
self-aminoacylation [5]: 1.5
self-aminoacylation [6]: 1.68

AGGUUUUCUAAUAGUCGCAAG [Fam3.1 aminoacylation ribozyme variant]
self-aminoacylation [1]: 1.79
self-aminoacylation [2]: 1.86
self-aminoacylation [3]: 2.83
self-aminoacylation [4]: 1.62
self-aminoacylation [5]: 1.52
self-aminoacylation [6]: 1.59

AGUACCCUGGUCAUAGAGUGA [Fam2.1 aminoacylation ribozyme variant]
self-aminoacylation [1]: 4.1
self-aminoacylation [2]: 2.33
self-aminoacylation [3]: 15.4
self-aminoacylation [4]: 4.67
self-aminoacylation [5]: 2.48
self-aminoacylation [6]: 4.15

AGUACCCUGGUCAUCGAGUCA [Fam2.1 aminoacylation ribozyme variant]
self-aminoacylation [1]: 0.769
self-aminoacylation [2]: 0.862
self-aminoacylation [3]: 0.555
self-aminoacylation [4]: 0.393
self-aminoacylation [5]: 0.869
self-aminoacylation [6]: 0.856

AUACCUCAAACAAUCGGUCUG [Fam1A.1 aminoacylation ribozyme variant]
self-aminoacylation [1]: 0.934
self-aminoacylation [2]: 0.977
self-aminoacylation [3]: 4.92
self-aminoacylation [4]: 1.52
self-aminoacylation [5]: 0.92
self-aminoacylation [6]: 0.919

AUACUUCAAACAACCGGUCUG [Fam1A.1 aminoacylation ribozyme variant]
self-aminoacylation [1]: 1.02
self-aminoacylation [2]: 1.05
self-aminoacylation [3]: 0.984
self-aminoacylation [4]: 0.767
self-aminoacylation [5]: 1.16
self-aminoacylation [6]: 1.08

AUACUUCAAACAAUCGAUCUG [Fam1A.1 aminoacylation ribozyme variant]
self-aminoacylation [1]: 0.485
self-aminoacylation [2]: 0.684
self-aminoacylation [3]: 0.915
self-aminoacylation [4]: 0.648
self-aminoacylation [5]: 0.59
self-aminoacylation [6]: 0.535

AUACUUCAAACGAUCGGUCUG [Fam1A.1 aminoacylation ribozyme variant]
self-aminoacylation [1]: 1.02
self-aminoacylation [2]: 0.836
self-aminoacylation [3]: 0.717
self-aminoacylation [4]: 1.23
self-aminoacylation [5]: 0.929
self-aminoacylation [6]: 0.908

AUAGUUCAAACAAUCGGUCUG [Fam1A.1 aminoacylation ribozyme variant]
self-aminoacylation [1]: 0.94
self-aminoacylation [2]: 0.94
self-aminoacylation [3]: 4.05
self-aminoacylation [4]: 3.06
self-aminoacylation [5]: 0.822
self-aminoacylation [6]: 0.827

AUCACCCUGGUCAUCGAUUGA [Fam2.1 aminoacylation ribozyme variant]
self-aminoacylation [1]: 1.19
self-aminoacylation [2]: 1.14
self-aminoacylation [3]: 0.66
self-aminoacylation [4]: 1.35
self-aminoacylation [5]: 1.02
self-aminoacylation [6]: 1.18

AUCACCCUGGUCCUCGAGUGA [Fam2.1 aminoacylation ribozyme variant]
self-aminoacylation [1]: 8.29
self-aminoacylation [2]: 4.01
self-aminoacylation [3]: 51.6
self-aminoacylation [4]: 7.28
self-aminoacylation [5]: 4.54
self-aminoacylation [6]: 6.62

AUGACCCUGGUAAUCGAGUGA [Fam2.1 aminoacylation ribozyme variant]
self-aminoacylation [1]: 5.39
self-aminoacylation [2]: 2.7
self-aminoacylation [3]: 23.9
self-aminoacylation [4]: 6.37
self-aminoacylation [5]: 2.8
self-aminoacylation [6]: 5.08

AUGCAACUAGGUCAUCGGGUG [Fam2.2 aminoacylation ribozyme variant]
self-aminoacylation [1]: 9.82
self-aminoacylation [2]: 6.38
self-aminoacylation [3]: 56.2
self-aminoacylation [4]: 8.26
self-aminoacylation [5]: 5.58
self-aminoacylation [6]: 8.13

AUGCACCGAGGUCAUCGGGUG [Fam2.2 aminoacylation ribozyme variant]
self-aminoacylation [1]: 6.58
self-aminoacylation [2]: 3.81
self-aminoacylation [3]: 40.4
self-aminoacylation [4]: 6.46
self-aminoacylation [5]: 3.66
self-aminoacylation [6]: 5.79

AUGCACCUAGUUCAUCGGGUG [Fam2.2 aminoacylation ribozyme variant]
self-aminoacylation [1]: 3.07
self-aminoacylation [2]: 2.77
self-aminoacylation [3]: 13.6
self-aminoacylation [4]: 4.29
self-aminoacylation [5]: 2.37
self-aminoacylation [6]: 2.73

AUGCAGCUAGGUCAUCGGGUG [Fam2.2 aminoacylation ribozyme variant]
self-aminoacylation [1]: 4.37
self-aminoacylation [2]: 2.95
self-aminoacylation [3]: 24.9
self-aminoacylation [4]: 3.92
self-aminoacylation [5]: 3.61
self-aminoacylation [6]: 3.73

AUGGUUGCUAAUAGUCGCAAG [Fam3.1 aminoacylation ribozyme variant]
self-aminoacylation [1]: 1.3
self-aminoacylation [2]: 1.43
self-aminoacylation [3]: 1.79
self-aminoacylation [4]: 1.53
self-aminoacylation [5]: 1.44
self-aminoacylation [6]: 1.02

AUUAACCCGGUCAUCGAGUGA [Fam2.1 aminoacylation ribozyme variant]
self-aminoacylation [1]: 7.87
self-aminoacylation [2]: 3.71
self-aminoacylation [3]: 54.5
self-aminoacylation [4]: 9.1
self-aminoacylation [5]: 4.15
self-aminoacylation [6]: 7.21
